Here are results for 18 molecules from paper PMC10163288.

First the molecules themselves.
B1: il10ra_site1_sap_33_mot_HHH_b2_05343_000000235_0001_19_35_H_._HHH_b1_03268_0001_0000300049_0000002_0_0001_af2pred_0001 (protein)
chain: SSSSSDAEDLAKKAIEIAEELEEEGNPELARISLRNAALAAKDRNDEEALEEIEKVLEELSSSSS
B2: il10ra_site1_normal_mot_05ca327611f5605f0dd8494b449afcbf_0001_1_000000248_0001_35_51_H_._HHH_b2_04947_af2_0001_0000300008_0000001_0 (protein)
chain: SSSSDAEVVQEVQELIREAAELIRNGDPEEAEEVLEEARRLAEELNNPILRFAVRAIAQALSSSS
B3: il10ra_site1_normal_mot_HHH_b2_07579_000000275_0001_1_19_H_._HHH_b1_05919_af2_0001_0000100002_0000002_0 (protein)
chain: SSSSSDEAYEAARRMAELLHRYEREGDERYREEIERLLEEIEELGNEVVLWSARHILRDVSSSSS
B4: il10ra_site1_normal_mot_HHH_b1_02665_000000293_0001_1_18_H_._HHH_b1_06547_0001_0000600033_0000002_0 (protein)
chain: SSSSDEEVRELVKEAEELAEELGDRNILFLLKQVLKLAEELGDPKLFERLHQLAEIFLRQNSSSS
B5: il10ra_site1_normal_mot_HHH_b2_03220_af2_000000223_0001_23_40_H_._HHH_b1_08445_0001_0000200024_0000002_0 (protein)
chain: SSSSSEEVWELLRKALELLADGNPEEARKVLEEAEELAEEENNENLKFAIRHLHRAIEDLSSSSS
B6: il10ra_site1_sap_20_mot_ems_3hM_235_000000244_0001_46_64_H_._67e1e90ad417e81182229281e7547621_0001_0001_0000500018_0000001_0_0001_af2pred_0001 (protein)
chain: SSSSSREEEALKLALRFLEFAIREGSERSAKILIKAIRELVEKSNNEEAEEELERLERELKSSSS
B7: il10ra_site1_normal_mot_HHH_b1_05056_000000217_0001_1_20_H_._HHH_b1_07279_0001_0000500040_0000001_0 (protein)
chain: SSSSSDEEEVRELLEEAEELARRGNPREASRVLLRALRIIYEANNPELLRELWEVVRRVASSSSS
B8: il10ra_site1_sap_23_mot_HHH_b1_06798_000000292_0001_1_19_H_._HHH_b1_01501_0001_0000100001_0000001_0_0001 (protein)
chain: SSSSDVEEEVEELLEEAKRVYEEGDDHKAAEILAKAMRLAYEAGDAELMRKVQRLSMRLLSSSSS
B9: il10ra_site1_sap_17_mot_HHH_b2_00076_000000055_0001_40_55_H_._HHH_b1_07763_af2_0001_0000100002_0000002_0_0001_af2pred_0001 (protein)
chain: SSSSDLEEEVRELLEEAKRIEDPEEVRELLREAAAIAARARDPELSYLILRVFAELTKERSSSSS
B10: il10ra_site1_normal_mot_HHH_b2_05813_000000266_0001_1_19_H_._HHH_b1_02254_0001_0000200018_0000001_0 (protein)
chain: SSSSSDEEERVFQLLVRLQRLLDEGDEERLRELLEEAKELAEELNDPVLRRAIEIIEELGSSSSS
B11: il10ra_site1_sap_20_mot_ems_3hC_416_0001_000000048_0001_1_19_H_._HHH_b1_02452_af2_0001_0000100004_0000002_0_0001 (protein)
chain: SSSSSSDEAQRIFELIEEAMQIEDPEEAQELLEEALELAEELNSWNLRVNVEYALEMLSSSSSSS
B12: il10ra_site1_normal_mot_HHH_b2_06142_af2_000000101_0001_1_18_H_._HHH_b1_07925_af2_0001_0000100002_0000002_0_af2pred_0001 (protein)
chain: SSSSDEEVKKETLKVQLEALRLLRNGNPEEARKVLEEAFEYLEELGNRRALEAVELLLEEISSSS
B13: il10ra_site1_normal_mot_HHH_b2_06142_af2_000000101_0001_1_18_H_._HHH_b2_00532_0001_0000100002_0000001_0_af2pred_dldesign_0_af2pred (protein)
chain: SSSSSTPEAEAALKEAALAMSIATKEEQKELFDLLVEFHKTRDPEVLERLRELIERIKAKSSSSS
B14: il10ra_site1_sap_25_mot_HHH_b2_02022_af2_000000170_0001_1_16_H_._dddd11d5de81826a7497a0a2545a4374_0001_1_af2_0001_0000500020_0000001_0_0001 (protein)
chain: SSSSDEVYEIARRAAEELLELIERGDDEEAEKVLEEARRELEELGSELAVRVLEWFFRRQRSSSS
B15: il10ra_site1_sap_26_mot_HHH_b2_07145_000000158_0001_24_40_H_._HHH_b1_04845_af2_0001_0000600034_0000001_0_0001 (protein)
chain: SSSSDEERERLVELLREVFRLLLRGDPERARELLEEAQEIAEELGDEQAKFALRDLEQAVNSSSS
B16: il10ra_site1_sap_17_mot_HHH_b1_02062_000000185_0001_1_20_H_._HHH_b2_03390_0001_0000100002_0000003_0_0001 (protein)
chain: SSSSSSEYEEEIRELLEEAKHIEDADEVYRLLEEAIKLATQANDPELAKLVMEVLREWLHSSSSS
B17: il10ra_site1_sap_16_mot_HHH_b2_06321_af2_000000133_0001_42_55_H_._HHH_b2_01905_0001_0000200026_0000001_0_0001 (protein)
chain: SSSSSDRRRQIYELLRRVVELDLEGNEEEARELLEEARELAEEANDRVMQEVIKHLERQLSSSSS
B18: il10ra_site1_normal_mot_HHH_b1_05357_000000034_0001_23_39_H_._HHH_b2_08306_af2_0001_0000300010_0000002_0 (protein)
chain: SSSSSSEEEYKERVEELLEEAKKIEDRARVSHILIRAYAIAHELGDEELREEITKVAQELSSSSS

This is one part of the list.

This test has as its target il10ra, Q13651. Description: yeast display titration.
Regarding B1, the “apparent Kd” value is “inactive: no binding seen”.
The entry for B2 is “inactive: no binding seen”; for B3 it is “inactive: no binding seen”.
The entry for B4 is “inactive: no binding seen”.
Consider B5, for which the “apparent Kd” value was “inactive: no binding seen”.
As for B6, the “apparent Kd” value is “inactive: no binding seen”.
The entry for B7 is “inactive: no binding seen”; for B8 it is “inactive: no binding seen”.
The result for B9 reads “inactive: no binding seen”; that for B10, “inactive: no binding seen”; that for B11, “inactive: no binding seen”.
The result for B12 reads “inactive: no binding seen”; that for B13, “inactive: no binding seen”.
Regarding B14, the “apparent Kd” value was “inactive: no binding seen”.
Take B15: the “apparent Kd” value is “inactive: no binding seen”.
Turning to B16, the “apparent Kd” value was “inactive: no binding seen”.
Regarding B17, the “apparent Kd” value is “inactive: no binding seen”.
The entry for B18 is “inactive: no binding seen”.
